{"source": "patent US8263749B2", "about": "“Imatinib immunoassay” (Saladax Biomedical Inc., priority 2009, dated 2012)", "tested_on": "antibodies to imatinib", "experiment": "Immunoassay reactivity of the antibodies produced in accordance with the invention (polyclonal and monoclonal)", "assay_type": "binding, mouse", "conditions": "summary of Tables I and II", "excerpt": "The present invention relates to novel antibodies and monoclonal antibodies to imatinib or its pharmacologically active salts. The antisera of the invention can be conveniently produced by immunizing host animals with the immunogens of this invention. Suitable host animals include rodents, such as, for example, mice, rats, rabbits, guinea pigs and the like, or higher mammals such as goats, sheep, horses and the like. […]\nThe ELISA method for determining IC50 values and cross-reactivity was performed with the microtiter plates that were sensitized with imatinib-BSA described in Examples 9. […] The assays were all performed by diluting the concentration of the antibodies in each of the wells to the titer determined in Example 10a. […] Following the incubation for color development, 50 of stop solution (1.5% sodium fluoride in di H2O) was added to each well to stop the color development and after 20 seconds of shaking the absorbance was determined at 650 nm (Molecular Devices Plate Reader). The amount of antibody in a well was proportional to the absorbance measured and inversely proportional to the amount of imatinib in the sample. The IC50's of imatinib and N-desmethyl imatinib were determined by constructing dose-response curves with the absorbance in the wells plotted versus analyte concentration in the wells. […]", "data": [{"compound": "CS(=O)(=O)O.Cc1ccc(NC(=O)c2ccc(CN3CCN(C)CC3)cc2)cc1Nc1nccc(-c2cccnc2)n1", "note": "[imatinib mesylate]", "values": [{"measurement": "reactivity with the antibodies", "value": "substantially reactive"}]}]}
